Assay results from patent publication US20040147490A1, “2-Amino-propanol derivatives” (priority 2001, published 2004).
Some of these results come from one statement about several compounds together.

Tested on: peripheral blood lymphocytes
Assay: Blood lymphocyte depletion
Assay type: in vivo
Details: rats, oral, 24 hours after administration

## NC(CO)(CCc1ccc(C(=O)CCCCc2ccccc2)cc1)COP(=O)(O)O (stereo not shown) [Example 1, Phosphoric Acid Mono-{2-amino-2-hydroxymethyl-4-[4-(5-phenyl-pentanoyl)-phenyl]-butyl} Ester]
Dose 0.4 mg/kg
  depletion of peripheral blood lymphocytes: more than 50%

## NC(CO)(CCc1ccc(C(=O)CCCCC2CCCCC2)cc1)COP(=O)(O)O (stereo not shown) [Example 2, Phosphoric Acid Mono-{2-amino-4-[4-(5-cyclohexyl-pentanoyl)-phenyl]-2-hydroxymethyl-butyl} Ester]
Dose 0.6 mg/kg
  depletion of peripheral blood lymphocytes: more than 50%

## COc1cc(CC[C@@](C)(N)CO)ccc1OCCCCc1ccccc1 [Example 6f, (R)-2-Amino-2-ethyl-4-[3-methoxy-4-(4-phenyl-butoxy)-phenyl]-butan-1-ol]
Dose 0.5 mg/kg
  depletion of peripheral blood lymphocytes: more than 50%

## C[C@](N)(CO)CCc1ccc(OCCCC2CCCCC2)cc1 [Example 26, (R)-2-Amino-4-[4-(3-cyclohexyl-propoxy)-phenyl]-2-methyl-butan-1-ol]
Dose 0.3 mg/kg
  depletion of peripheral blood lymphocytes: more than 50%

## CCCCCCCOc1ccc(CC[C@@](N)(CO)CCCO)cc1 [Example 20, (S)-2-Amino-2-[2-(4-heptyloxy-phenyl)-ethyl]-butane-1,4-diol]
Dose 0.1 mg/kg
  depletion of peripheral blood lymphocytes: more than 50%

## C[C@](N)(CO)CCc1ccc(OCCCc2ccccc2)cc1 [Example 23, (R)-2-Amino-2-methyl-4-[4-(3-phenyl-propoxy)-phenyl]-butan-1-ol]
Dose 0.2 mg/kg
  depletion of peripheral blood lymphocytes: more than 50%

## C[C@](N)(CO)CCc1ccc(OCCCCCc2ccccc2)cc1 [Example 22, (R)-2-Amino-2-methyl-4-[4-(5-phenyl-pentyloxy)-phenyl]-butan-1-ol]
Dose 0.05 mg/kg
  depletion of peripheral blood lymphocytes: more than 50%
